Data taken from paper PMC9887753.
No constants are given. Whether binding was seen depends on the method and setting. Binding calls can cover weak binding; strength is not graded here. For some of these results: Where a sequence is shown, tags or fusion partners need not be part of it. For some of these results: Binding seen in cells or lysates may run through a third protein.

Columns and labels:
[1] = target: T1, FLAG-tagged mouse perilipin 5 (Plin5), transgene of MHC-Plin5 mice (mouse) (UniProt Q8BVZ1); assay: co-IP; FLAG immunoprecipitation (Pierce Anti-FLAG Magnetic Agarose) from lysates of primary MHC-Plin5 and WT cardiomyocytes; immunoblot for Plin5 and SERCA2
T1 sequence: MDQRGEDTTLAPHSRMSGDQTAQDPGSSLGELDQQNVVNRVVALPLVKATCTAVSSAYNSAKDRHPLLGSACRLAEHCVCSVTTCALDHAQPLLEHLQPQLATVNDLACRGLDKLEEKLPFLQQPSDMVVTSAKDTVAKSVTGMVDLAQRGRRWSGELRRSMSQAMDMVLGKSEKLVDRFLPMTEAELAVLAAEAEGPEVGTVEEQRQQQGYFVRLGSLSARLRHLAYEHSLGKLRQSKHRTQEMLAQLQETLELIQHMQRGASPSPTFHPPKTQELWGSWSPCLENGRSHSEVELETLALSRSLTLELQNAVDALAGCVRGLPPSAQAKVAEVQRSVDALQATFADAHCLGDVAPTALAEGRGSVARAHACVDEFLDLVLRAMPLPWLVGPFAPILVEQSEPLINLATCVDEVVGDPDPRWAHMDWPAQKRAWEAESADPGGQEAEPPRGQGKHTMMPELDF

[2] = target: T1, FLAG-tagged mouse perilipin 5 (Plin5), transgene of MHC-Plin5 mice (mouse); assay: proximity ligation; in situ PLA (NaveniFlex MR Kit) on fixed, permeabilised primary WT and MHC-Plin5 cardiomyocytes with anti-Plin5 (26951-1-AP) and anti-SERCA2 (MA3-910); IgG controls
[3] = target: T2, endogenous perilipin 5 (Plin5) of WT mouse cardiomyocytes (mouse (endogenous in primary cardiomyocytes)) (UniProt Q8BVZ1); assay: as above
T2 sequence: T1 sequence

[4] = target: T1, FLAG-tagged mouse perilipin 5 (Plin5), transgene of MHC-Plin5 mice (mouse); assay: native gel or EMSA; blue-native PAGE and two-dimensional blue-native/SDS-PAGE of homogenates of primary WT and MHC-Plin5 cardiomyocytes (1% Triton X-100), immunoblot for Plin5 and SERCA2
[5] = target: T2, endogenous perilipin 5 (Plin5) of WT mouse cardiomyocytes (mouse (endogenous in primary cardiomyocytes)); assay: as above
[6] = target: T1, FLAG-tagged mouse perilipin 5 (Plin5), transgene of MHC-Plin5 mice (mouse); assay: co-IP; immunoprecipitation with perilipin 5 polyclonal antibody (26951-1-AP) on Dynabeads Protein A from lysates of primary WT and MHC-Plin5 cardiomyocytes; non-immune rabbit IgG as control; immunoblot for Plin5 and SERCA2
[7] = target: T2, endogenous perilipin 5 (Plin5) of WT mouse cardiomyocytes (mouse (endogenous in primary cardiomyocytes)); assay: as above

Measured: binding

sarcoplasmic/endoplasmic reticulum Ca2+ ATPase 2 (SERCA2) (from UniProt O55143-2)
binds: [1] | [2] | [3] | [4] | [5] | [6] | [7]
